In PubChem BioAssay AID489039 (National Center for Advancing Translational Sciences (NCATS), 2010):
This list was built around the results that the source calls inconclusive (neither active nor inactive); the mix of calls is not that of the screen. Potencies beside an inconclusive call are fits to weak or partial responses and may not hold up. Activity calls are given as the source filed them. The call rests on the fitted dose curve; in most records, active means well fitted inhibition curve with a large enough effect; inconclusive means small, poorly fitted or top-dose-only effect, or effect the other way; inactive means no such curve, though single readings can be large or run the other way.

What follows are compounds tested against Nuclear receptor ROR-alpha (Homo sapiens) (UniProt P35398) (assay: ROR alpha selectivity assay for inhibitors of ROR gamma transcriptional activity). Conditions: Drosophila S2 Gal4-RORalpha UAS-luciferase, 20 h; activity change, negative = inhibition: at 92.2 µM (top of the series).
Outline: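 Drosophila Schneider cells stably carrying Gal4-DBD/RORalpha fusion under metallothionein promoter plus UAS-Photinus luciferase; 1 h compound preincubation, then copper sulfate (700 uM final) induction. Luminescence read after 20 h at ambient temperature.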

| SMILES | Potency | activity change, negative = inhibition |
| --- | --- | --- |
| Cc1cc(C)c2sc(NC(=O)c3ccc(N4C(=O)CCC4=O)cc3)nc2c1 | active: 0.407 µM |  |
| COc1cc(O)c([C@H](CC(=O)N2CC(C)CC(C)C2)c2ccc3c(c2)OCO3)c(OC)c1 (stereo not given in full) | inconclusive: 28.8 µM [activator, partial curve, poor fit] |  |
| COc1cc(OC)c(C(CC(=O)N2CC(C)CC(C)C2)c2ccc3c(c2)OCO3)c(OCC(N)=O)c1 (stereo not given) | inconclusive: 45.7 µM [activator, partial curve] |  |
| COc1cc(O)c(C(CC(=O)N2CCCCC2C)c2ccc3c(c2)OCO3)c(OC)c1 (stereo not given) |  | inactive: 4.78% |
| Cc1cccc(C(CC(=O)NCc2ccco2)c2ccccc2)c1O (stereo not given) |  | inactive: 91.2% |
| COc1cc(O)c(C(CC(=O)N2CCCC(C#N)C2)c2ccc3c(c2)OCO3)c(OC)c1 (stereo not given) |  | inactive: 18.3% |
| COc1cc(O)c(C(CC(=O)N2CCCC(C)C2)c2ccc3ccccc3c2)c(OC)c1 (stereo not given) |  | inactive: -28% |
| COc1cc(O)c(C(CC(=O)N2CCC(C)CC2)c2ccc(C)cc2)c(OC)c1 (stereo not given) | inconclusive: 32.3 µM [activator, partial curve] |  |
| Cc1cc(C)nc(-n2nc(C)cc2NC(=O)CNC(C)c2ccccc2)n1 (stereo not given) | inconclusive: 18.2 µM [inhibitor, full curve, poor fit] |  |
| CCOc1ccc(C(CC(=O)N2CCCC(C)C2)c2c(O)cc(OC)cc2OC)cc1 (stereo not given) | inconclusive: 2.57 µM [inhibitor, full curve, poor fit] |  |
| COc1cc(O)c(C(CC(=O)NC2CCCc3ccccc32)c2ccc3c(c2)OCO3)c(OC)c1 (stereo not given) |  | inactive: -3.21% |
| COc1cc(O)c(C(CC(=O)N2CCCCC2)c2ccc(OC)c(OC)c2)c(OC)c1 (stereo not given) | inconclusive: 0.002 µM [inhibitor, full curve, poor fit] |  |
| CCOc1cccc(-c2cc(-c3n[nH]c(=O)n3CC)c3ccccc3n2)c1 |  | inconclusive: 30.4% [activator] |
| CCN(CC)c1ccc(/C=N/n2c(-c3ccccc3Br)n[nH]c2=S)cc1 | inconclusive: 22.9 µM [inhibitor, full curve] |  |
| COc1cc(O)c(C(CC(=O)Nc2ccc(C)cc2)c2ccc3c(c2)OCO3)c(OC)c1 (stereo not given) | inconclusive: 72.4 µM [inhibitor, single point] |  |
| COc1ccc(C(=O)Nc2cc(-c3ccc(C)cc3)no2)cc1 | inconclusive: 7.24 µM [activator, full curve, poor fit] |  |
| Cc1ccc(OCCCC(=O)Nc2nc3ccccc3[nH]2)cc1 | active: 8.12 µM |  |
| COc1cc(O)c(C(CC(=O)N2CCCC(c3ccccc3)C2)c2ccc3c(c2)OCO3)c(OC)c1 (stereo not given) | inconclusive: 0.363 µM [activator, full curve, poor fit] |  |
| CC(=O)[C@@]1(O)CC[C@@H]2[C@H]3C[C@@H](C)C4=CC(=O)C=C[C@]4(C)[C@@]3(F)[C@@H](O)C[C@]21C | inconclusive: 0.115 µM [activator, full curve, poor fit] |  |
| COc1ccccc1C(CC(=O)N1CCCC(C)C1)c1ccccc1 (stereo not given) | inconclusive: 36.3 µM [activator, partial curve, poor fit] |  |

Entries of single compounds, quoted from the list.
`COc1cc(O)c(C(CC(=O)Nc2ccc(C)cc2)c2ccc3c(c2)OCO3)c(OC)c1` (stereo not given) in the list: Potency: inconclusive: 72.4 µM [inhibitor, single point]
`COc1cc(O)c(C(CC(=O)N2CCCC(C)C2)c2ccc3ccccc3c2)c(OC)c1` (stereo not given) in the list: activity change, negative = inhibition: inactive: -28%
